Laboratory results from the supplement of paper PMC10849652.
This is one part of the list.

Sequences of proteins named here, by UniProt entry; tags and fusion partners are left off. A change or cut given only in a name is not applied to a line headed by its entry.
UniProt Q9NQG5: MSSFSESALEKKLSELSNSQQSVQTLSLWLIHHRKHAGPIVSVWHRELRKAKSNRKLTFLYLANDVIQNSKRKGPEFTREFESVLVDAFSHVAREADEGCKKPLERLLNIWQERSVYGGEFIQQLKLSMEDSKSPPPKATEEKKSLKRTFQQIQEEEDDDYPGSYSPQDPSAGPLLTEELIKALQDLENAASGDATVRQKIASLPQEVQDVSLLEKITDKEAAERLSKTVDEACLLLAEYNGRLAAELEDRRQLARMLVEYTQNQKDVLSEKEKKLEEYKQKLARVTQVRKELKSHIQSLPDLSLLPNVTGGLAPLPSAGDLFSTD
UniProt Q9H6T3, whole entry, looked up: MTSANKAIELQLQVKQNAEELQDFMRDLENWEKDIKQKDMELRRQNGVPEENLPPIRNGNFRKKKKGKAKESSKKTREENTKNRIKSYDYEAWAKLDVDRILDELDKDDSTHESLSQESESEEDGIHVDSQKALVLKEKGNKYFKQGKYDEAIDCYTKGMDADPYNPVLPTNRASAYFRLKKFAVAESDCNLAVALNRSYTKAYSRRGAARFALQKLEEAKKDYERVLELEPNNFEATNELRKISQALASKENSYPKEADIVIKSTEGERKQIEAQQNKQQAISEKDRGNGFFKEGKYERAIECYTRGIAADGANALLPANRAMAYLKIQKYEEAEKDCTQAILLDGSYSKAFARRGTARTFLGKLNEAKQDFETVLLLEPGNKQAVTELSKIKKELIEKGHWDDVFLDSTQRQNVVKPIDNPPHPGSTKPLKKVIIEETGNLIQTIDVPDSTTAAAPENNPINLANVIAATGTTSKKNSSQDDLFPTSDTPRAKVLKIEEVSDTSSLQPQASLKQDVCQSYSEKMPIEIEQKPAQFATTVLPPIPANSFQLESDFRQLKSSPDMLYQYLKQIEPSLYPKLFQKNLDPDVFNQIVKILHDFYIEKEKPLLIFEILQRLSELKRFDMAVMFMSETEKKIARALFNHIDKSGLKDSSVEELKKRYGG
UniProt O43148, whole entry, looked up: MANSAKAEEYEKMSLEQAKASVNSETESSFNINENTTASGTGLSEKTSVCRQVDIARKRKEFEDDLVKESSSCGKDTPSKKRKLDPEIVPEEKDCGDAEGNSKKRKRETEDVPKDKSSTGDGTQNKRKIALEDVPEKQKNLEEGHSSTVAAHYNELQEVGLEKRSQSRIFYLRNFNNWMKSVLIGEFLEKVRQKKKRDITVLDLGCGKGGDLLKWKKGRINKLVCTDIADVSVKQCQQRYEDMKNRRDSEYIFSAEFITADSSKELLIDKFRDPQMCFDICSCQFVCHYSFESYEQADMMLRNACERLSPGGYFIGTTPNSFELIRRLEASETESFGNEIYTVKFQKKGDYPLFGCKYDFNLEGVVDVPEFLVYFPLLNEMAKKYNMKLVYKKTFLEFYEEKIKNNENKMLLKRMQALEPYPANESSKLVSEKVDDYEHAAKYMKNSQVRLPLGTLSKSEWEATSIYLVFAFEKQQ
UniProt P49247: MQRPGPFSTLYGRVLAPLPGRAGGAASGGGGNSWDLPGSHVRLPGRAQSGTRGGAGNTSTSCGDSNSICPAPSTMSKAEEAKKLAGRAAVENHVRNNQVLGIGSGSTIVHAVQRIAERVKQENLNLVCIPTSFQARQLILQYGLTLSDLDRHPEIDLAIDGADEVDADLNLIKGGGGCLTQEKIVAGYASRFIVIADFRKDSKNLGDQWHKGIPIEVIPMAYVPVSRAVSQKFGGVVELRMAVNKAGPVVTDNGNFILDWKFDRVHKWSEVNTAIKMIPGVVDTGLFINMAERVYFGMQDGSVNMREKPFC
UniProt Q7L523, whole entry, looked up: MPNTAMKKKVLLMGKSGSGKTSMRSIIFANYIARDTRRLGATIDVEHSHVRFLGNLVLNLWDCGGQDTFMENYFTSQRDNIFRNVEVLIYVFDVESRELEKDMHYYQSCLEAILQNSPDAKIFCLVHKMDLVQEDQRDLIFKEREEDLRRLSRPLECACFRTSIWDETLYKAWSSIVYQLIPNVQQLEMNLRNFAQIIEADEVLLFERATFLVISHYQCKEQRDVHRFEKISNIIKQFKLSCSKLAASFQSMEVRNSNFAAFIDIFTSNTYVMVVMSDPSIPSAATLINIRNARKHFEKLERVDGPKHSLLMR
UniProt P10155: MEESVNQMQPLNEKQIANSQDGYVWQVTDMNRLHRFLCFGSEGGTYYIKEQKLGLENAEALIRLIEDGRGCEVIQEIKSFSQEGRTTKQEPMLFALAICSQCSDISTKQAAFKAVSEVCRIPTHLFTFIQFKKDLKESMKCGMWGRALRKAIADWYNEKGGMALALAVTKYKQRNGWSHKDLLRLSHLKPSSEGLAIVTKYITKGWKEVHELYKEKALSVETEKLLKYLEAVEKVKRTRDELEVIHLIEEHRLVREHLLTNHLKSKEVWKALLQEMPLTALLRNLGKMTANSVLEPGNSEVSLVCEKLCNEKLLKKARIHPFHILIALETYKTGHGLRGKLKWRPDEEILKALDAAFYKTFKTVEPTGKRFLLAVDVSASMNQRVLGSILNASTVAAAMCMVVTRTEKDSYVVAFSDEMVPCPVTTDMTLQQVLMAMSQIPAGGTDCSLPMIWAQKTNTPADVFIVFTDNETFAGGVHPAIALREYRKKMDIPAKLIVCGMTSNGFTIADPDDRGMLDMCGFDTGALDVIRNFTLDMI
UniProt P04844: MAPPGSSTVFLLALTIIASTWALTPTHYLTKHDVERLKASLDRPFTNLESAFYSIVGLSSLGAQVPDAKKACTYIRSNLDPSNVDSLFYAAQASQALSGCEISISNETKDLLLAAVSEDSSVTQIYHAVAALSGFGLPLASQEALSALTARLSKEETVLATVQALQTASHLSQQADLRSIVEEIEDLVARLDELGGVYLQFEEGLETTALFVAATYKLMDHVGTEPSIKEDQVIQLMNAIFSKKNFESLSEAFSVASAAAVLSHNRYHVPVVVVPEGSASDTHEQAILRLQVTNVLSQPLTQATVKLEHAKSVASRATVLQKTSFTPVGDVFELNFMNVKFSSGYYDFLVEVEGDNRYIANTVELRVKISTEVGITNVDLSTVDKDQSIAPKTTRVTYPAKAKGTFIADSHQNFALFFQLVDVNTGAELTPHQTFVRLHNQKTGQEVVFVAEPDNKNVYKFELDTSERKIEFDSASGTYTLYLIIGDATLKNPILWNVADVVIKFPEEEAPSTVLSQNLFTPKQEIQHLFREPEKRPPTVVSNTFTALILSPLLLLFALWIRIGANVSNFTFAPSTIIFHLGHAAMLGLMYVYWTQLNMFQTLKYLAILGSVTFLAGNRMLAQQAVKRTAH
UniProt P05387, whole entry, looked up: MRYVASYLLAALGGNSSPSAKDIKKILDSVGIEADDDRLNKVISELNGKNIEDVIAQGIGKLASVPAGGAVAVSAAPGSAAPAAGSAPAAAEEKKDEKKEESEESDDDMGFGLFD
UniProt P78346: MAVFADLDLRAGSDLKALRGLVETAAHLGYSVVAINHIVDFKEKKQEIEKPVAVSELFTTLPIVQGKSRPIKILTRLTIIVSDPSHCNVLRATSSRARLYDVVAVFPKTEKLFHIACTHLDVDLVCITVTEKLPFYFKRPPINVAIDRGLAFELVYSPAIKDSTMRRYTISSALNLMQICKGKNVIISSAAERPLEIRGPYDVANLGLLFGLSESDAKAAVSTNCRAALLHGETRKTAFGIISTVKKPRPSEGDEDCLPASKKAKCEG

Legend:
Assay in all cases: log2 fold change, soluble protein after heating vs DMSO (PISA); higher = thermal stabilisation; K562 cells, 10 uM, 30 min; active = over 0.2 and 3.5 SD of the protein, either way, in both replicates (recomputed)
bafetinib = compound: Cc1ccc(NC(=O)c2ccc(CN3CC[C@H](N(C)C)C3)c(C(F)(F)F)c2)cc1Nc1nccc(-c2cncnc2)n1 [bafetinib]
Summary of the method: (§1)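 Aliquots of K562 cells (2×10^6 cells/mL) treated with 10 μM compound for 30 min were heated for 3 min over 48°C-58°C. After pooling and extraction in PBS with 0.5% NP-40 at 4°C, soluble protein from a 21,000xg, 90 min spin was quantified by TMTpro 16plex LC-MS/MS with channel sums equalised. Thermal stability is expressed against control samples, from duplicates, as a log2 fold change.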

[1] = compound: Cc1cccc(CC(=O)N2CCc3c2ccc(-c2cn(C)c4ncnc(N)c24)c3F)n1
Summary of the method: as §1

nilotinib = compound: Cc1cn(-c2cc(NC(=O)c3ccc(C)c(Nc4nccc(-c5cccnc5)n4)c3)cc(C(F)(F)F)c2)cn1 [nilotinib]
Summary of the method: as §1

[2] = compound: Cc1nc(Nc2n[nH]c3c2CN(C(=O)N[C@H](CN(C)C)c2ccccc2)C3(C)C)c2sccc2n1
Summary of the method: as §1

dasatinib = compound: Cc1nc(Nc2ncc(C(=O)Nc3c(C)cccc3Cl)s2)cc(N2CCN(CCO)CC2)n1 [dasatinib]
Summary of the method: as §1

[3] = compound: Cc1ncc(-c2ccnc(Nc3ccc(S(C)(=O)=O)cc3)n2)n1C(C)C
Summary of the method: as §1

[4] = compound: Cn1cc(-c2ccc3c(c2)CCN3C(=O)Cc2cccc(C(F)(F)F)c2)c2c(N)ncnc21
Summary of the method: as §1

[5] = compound: Cn1cc(-c2ccc3nnc(C(F)(F)c4ccc5ncccc5c4)n3n2)cn1
Summary of the method: as §1

tipifarnib = compound: Cn1cncc1[C@@](N)(c1ccc(Cl)cc1)c1ccc2c(c1)c(-c1cccc(Cl)c1)cc(=O)n2C [tipifarnib]
Summary of the method: as §1

mubritinib = compound: FC(F)(F)c1ccc(/C=C/c2nc(COc3ccc(CCCCn4ccnn4)cc3)co2)cc1 [mubritinib]
Summary of the method: as §1

[6] = compound: NC(=O)Nc1cc(-c2cccc(F)c2)sc1C(=O)N[C@H]1CCCNC1
Summary of the method: as §1

[7] = compound: NC(=O)c1cnc(N[C@@H]2CCCC[C@@H]2N)nc1Nc1cccc(-n2nccn2)c1
Summary of the method: as §1

[8] = compound: NC1(c2ccc(-c3nc4ccn5c(=O)[nH]nc5c4cc3-c3ccccc3)cc2)CCC1
Summary of the method: as §1

[9] = compound: NCC(=O)Nc1ccc(-n2nc(C(F)(F)F)cc2-c2ccc3c(ccc4ccccc43)c2)cc1
Summary of the method: as §1

entinostat = compound: Nc1ccccc1NC(=O)c1ccc(CNC(=O)OCc2cccnc2)cc1 [entinostat]
Summary of the method: as §1

vorinostat = compound: O=C(CCCCCCC(=O)Nc1ccccc1)NO [vorinostat]
Summary of the method: as §1

citarinostat = compound: O=C(CCCCCCNC(=O)c1cnc(N(c2ccccc2)c2ccccc2Cl)nc1)NO [citarinostat]
Summary of the method: as §1

silmitasertib = compound: O=C(O)c1ccc2c(c1)nc(Nc1cccc(Cl)c1)c1ccncc12 [silmitasertib]
Summary of the method: as §1

[10] = compound: O=C1NC(=O)C(c2cnc3ccccn23)=C1c1cn2c3c(cc(F)cc13)CN(C(=O)N1CCCCC1)CC2
Summary of the method: as §1

[11] = compound: c1cc(OCCN2CCCCC2)cc(-c2n[nH]c3ccc(-c4nnc[nH]4)cc23)c1
Summary of the method: as §1

Measured: log2 fold change

RPRD1B (UniProt Q9NQG5)
active: [10] -0.346
inactive: bafetinib -0.036 | [1] 0.04 | nilotinib -0.036 | [2] -0.072 | dasatinib -0.099 | [3] -0.024 | [4] -0.021 | [5] -0.035 | tipifarnib -0.039 | mubritinib 0.032 | [6] -0.058 | [7] -0.03 | [8] -0.087 | [9] -0.081 | entinostat 0.051 | vorinostat 0.049 | citarinostat 0.029 | silmitasertib 0.031 | [11] -0.049

RPAP3 (UniProt Q9H6T3)
inactive: bafetinib 0.072 | [1] 0.054 | nilotinib -0.01 | [2] 0.002 | dasatinib -0.106 | [3] 0.06 | [4] -0.016 | [5] -0.045 | tipifarnib -0.056 | mubritinib 0.029 | [6] -0.117 | [7] -0.079 | [8] -0.084 | [9] -0.105 | entinostat 0.033 | vorinostat 0.064 | citarinostat 0.019 | silmitasertib 0.016 | [10] 0.017 | [11] -0.049

RNMT isoform 2 (UniProt O43148)
inactive: bafetinib -0.002 | [1] -0.027 | nilotinib -0.024 | [2] 0.053 | dasatinib 0.076 | [3] 0.024 | [4] -0.035 | [5] -0.016 | tipifarnib 0.04 | mubritinib -0.021 | [6] 0.01 | [7] -0.034 | [8] 0.095 | [9] -0.092 | entinostat -0.05 | vorinostat 0.006 | citarinostat -0.021 | silmitasertib 0.023 | [10] 0.038 | [11] -0.075

RPIA (UniProt P49247)
inactive: bafetinib -0.039 | [1] -0.003 | nilotinib 0 | [2] 0.006 | dasatinib -0.014 | [3] -0.017 | [4] 0.051 | [5] 0.015 | tipifarnib -0.018 | mubritinib 0.022 | [6] -0.02 | [7] 0 | [8] -0.047 | [9] -0.009 | entinostat -0.009 | vorinostat -0.063 | citarinostat 0.003 | silmitasertib -0.028 | [10] -0.02 | [11] 0.009

RRAGA (UniProt Q7L523)
inactive: bafetinib -0.011 | [1] 0.097 | nilotinib 0.033 | [2] 0.024 | dasatinib -0.133 | [3] -0.051 | [4] 0.053 | [5] 0.055 | tipifarnib 0.142 | mubritinib -0.02 | [6] -0.002 | [7] 0.138 | [8] -0.209 | [9] 0.232 | entinostat -0.076 | vorinostat -0.014 | citarinostat 0.029 | silmitasertib 0.075 | [10] 0.033 | [11] -0.073

RO60 (UniProt P10155)
inactive: bafetinib -0.113 | [1] -0.064 | nilotinib 0.005 | [2] 0.027 | dasatinib 0.031 | [3] -0.021 | [4] -0.021 | [5] -0.006 | tipifarnib 0.003 | mubritinib 0 | [6] -0.049 | [7] -0.014 | [8] -0.01 | [9] -0.02 | entinostat -0.043 | vorinostat -0.053 | citarinostat 0.001 | silmitasertib 0 | [10] 0.028 | [11] -0.019

RPN2 (UniProt P04844)
inactive: bafetinib 0 | [1] 0.026 | nilotinib -0.046 | [2] 0.002 | dasatinib 0.003 | [3] -0.046 | [4] -0.033 | [5] 0.014 | tipifarnib -0.02 | mubritinib -0.015 | [6] -0.017 | [7] -0.015 | [8] -0.08 | [9] 0 | entinostat 0.011 | vorinostat 0.012 | citarinostat 0.034 | silmitasertib 0.013 | [10] -0.013 | [11] -0.031

RPS15 (UniProt P62841)
inactive: bafetinib 0.087 | [1] -0.09 | nilotinib 0.033 | [2] 0.221 | dasatinib 0.133 | [3] -0.106 | [4] -0.194 | [5] -0.027 | tipifarnib 0.082 | mubritinib -0.044 | [6] 0.005 | [7] -0.13 | [8] 0.135 | [9] 0 | entinostat -0.068 | vorinostat 0 | citarinostat -0.034 | silmitasertib 0.02 | [10] 0.036 | [11] -0.144

RPS17 (UniProt P08708)
inactive: bafetinib 0.194 | [1] -0.018 | nilotinib 0.039 | [2] 0.123 | dasatinib 0.121 | [3] -0.007 | [4] -0.201 | [5] -0.032 | tipifarnib 0.06 | mubritinib -0.076 | [6] 0.03 | [7] 0.058 | [8] 0.222 | [9] 0.067 | entinostat -0.046 | vorinostat 0.01 | citarinostat -0.045 | silmitasertib -0.027 | [10] 0.077 | [11] -0.155

RPL18 (UniProt Q07020)
inactive: bafetinib 0.574 | [1] -0.001 | nilotinib 0.021 | [2] 0.236 | dasatinib 0.382 | [3] -0.056 | [4] -0.694 | [5] -0.347 | tipifarnib 0.502 | mubritinib -0.428 | [6] 0.208 | [7] 0.186 | [8] 0.565 | [9] 0.352 | entinostat -0.09 | vorinostat -0.012 | citarinostat -0.201 | silmitasertib 0.184 | [10] 0.297 | [11] -0.281

Quoted at random: two records from the list, in no set order.
RPN2 (UniProt P04844)
inactive: bafetinib 0 | [1] 0.026 | nilotinib -0.046 | [2] 0.002 | dasatinib 0.003 | [3] -0.046 | [4] -0.033 | [5] 0.014 | tipifarnib -0.02 | mubritinib -0.015 | [6] -0.017 | [7] -0.015 | [8] -0.08 | [9] 0 | entinostat 0.011 | vorinostat 0.012 | citarinostat 0.034 | silmitasertib 0.013 | [10] -0.013 | [11] -0.031

RPL18 (UniProt Q07020)
inactive: bafetinib 0.574 | [1] -0.001 | nilotinib 0.021 | [2] 0.236 | dasatinib 0.382 | [3] -0.056 | [4] -0.694 | [5] -0.347 | tipifarnib 0.502 | mubritinib -0.428 | [6] 0.208 | [7] 0.186 | [8] 0.565 | [9] 0.352 | entinostat -0.09 | vorinostat -0.012 | citarinostat -0.201 | silmitasertib 0.184 | [10] 0.297 | [11] -0.281

(listing goes on)

RPLP2 (UniProt P05387)
inactive: bafetinib 0.346 | [1] -0.001 | nilotinib 0.002 | [2] 0.206 | dasatinib 0.138 | [3] -0.048 | [4] -0.417 | [5] -0.203 | tipifarnib 0.242 | mubritinib -0.272 | [6] 0.079 | [7] 0.093 | [8] 0.436 | [9] 0.355 | entinostat -0.132 | vorinostat -0.029 | citarinostat -0.202 | silmitasertib 0.188 | [10] 0.227 | [11] -0.386

RPS9 (UniProt P46781)
inactive: bafetinib 0.318 | [1] -0.001 | nilotinib 0.003 | [2] 0.206 | dasatinib 0.106 | [3] -0.035 | [4] -0.176 | [5] -0.088 | tipifarnib 0.067 | mubritinib -0.09 | [6] 0.07 | [7] 0.127 | [8] 0.202 | [9] 0.073 | entinostat -0.058 | vorinostat -0.007 | citarinostat -0.058 | silmitasertib 0.007 | [10] 0.076 | [11] -0.152

RPL7 (UniProt P18124)
inactive: bafetinib 0.596 | [1] -0.001 | nilotinib 0.002 | [2] 0.307 | dasatinib 0.303 | [3] -0.029 | [4] -0.538 | [5] -0.262 | tipifarnib 0.452 | mubritinib -0.384 | [6] 0.29 | [7] 0.213 | [8] 0.472 | [9] 0.358 | entinostat -0.114 | vorinostat -0.047 | citarinostat -0.248 | silmitasertib 0.21 | [10] 0.277 | [11] -0.389

RPS10 (UniProt P46783)
inactive: bafetinib 0.194 | [1] -0.002 | nilotinib 0.02 | [2] 0.14 | dasatinib 0.053 | [3] -0.074 | [4] -0.075 | [5] -0.002 | tipifarnib 0.113 | mubritinib -0.003 | [6] 0.047 | [7] 0.087 | [8] 0.161 | [9] 0.052 | entinostat -0.077 | vorinostat -0.004 | citarinostat -0.033 | silmitasertib -0.019 | [10] 0.072 | [11] -0.09

RPP30 isoform 2 (UniProt P78346)
inactive: bafetinib -0.039 | [1] -0.024 | nilotinib 0.039 | [2] -0.017 | dasatinib 0.135 | [3] 0.009 | [4] -0.046 | [5] -0.022 | tipifarnib 0.036 | mubritinib 0.016 | [6] 0.054 | [7] -0.037 | [8] 0.022 | [9] -0.049 | entinostat -0.041 | vorinostat -0.01 | citarinostat -0.02 | silmitasertib 0.052 | [10] 0.102 | [11] -0.112

RPL17 isoform 3 (UniProt P18621)
inactive: bafetinib 0.148 | [1] -0.057 | nilotinib 0.054 | [2] 0.158 | dasatinib 0.188 | [3] -0.025 | [4] -0.38 | [5] -0.144 | tipifarnib 0.155 | mubritinib -0.182 | [6] 0.209 | [7] 0.248 | [8] 0.39 | [9] 0.268 | entinostat -0.072 | vorinostat -0.048 | citarinostat -0.206 | silmitasertib 0.084 | [10] 0.213 | [11] -0.251
